For at least one compound, name, drawing or mass did not settle the structure.
System: 5-HT levels in ventral hippocampus
Test: Microdialysis of brain serotonin (5-HT) levels in ventral hippocampus of rats
Format: in vivo, rat
Conditions: loxapine alone; male Wistar rats
Protocol: Male albino rats of a Wistar-derived strain (285-320 g; Harlan, Zeist, The Netherlands) were used for the experiments. Upon surgery, rats were housed individually in plastic cages (35×35×40 cm), and had free access to food and water. Animals were kept on a 12 h light schedule (light on 7:00 a.m.). The experiments are concordant with the declarations of Helsinki and were approved by the animal care committee of the faculty of mathematics and natural science of the University of Groningen.
Preceding surgery rats were anaesthetised using isoflurane (O2/N2O; 300/300 ml/min). Lidocaine-HCl, 10% (m/v) was used for local anaesthesia.
Rats were allowed to recover for at least 24 h. […]
Twenty-μl microdialysate samples were injected via an autoinjector (CMA/200 refrigerated microsampler, CMA, Sweden) onto a 100×2.0 mm C18 Hypersil 3 μm column (Bester, Amstelveen, the Netherlands) and separated with a mobile phase consisting of 5 g/L di-ammoniumsulfate, 500 mg/L EDTA, 50 mg/L heptane sulphonic acid, 4% methanol v/v, and 30 μl/L of triethylamine, pH 4.65 at a flow of 0.4 ml/min (Shimadzu LC-10 AD). 5-HT was detected amperometrically at a glassy carbon electrode at 500 mV vs Ag/AgCl (Antec Leyden, Leiden, The Netherlands). […]

CN1CCN(C2=Nc3ccccc3Oc3ccc(Cl)cc32)CC1 [loxapine]
effect on 5-HT levels in ventral hippocampus (microdialysis, % of control level): did not induce any significant effects
